2 substances from paper PMC7865656 can be followed below.

Protein sequences, listed by entry. Tags and fused reporters are not part of them.
UniProt P01106: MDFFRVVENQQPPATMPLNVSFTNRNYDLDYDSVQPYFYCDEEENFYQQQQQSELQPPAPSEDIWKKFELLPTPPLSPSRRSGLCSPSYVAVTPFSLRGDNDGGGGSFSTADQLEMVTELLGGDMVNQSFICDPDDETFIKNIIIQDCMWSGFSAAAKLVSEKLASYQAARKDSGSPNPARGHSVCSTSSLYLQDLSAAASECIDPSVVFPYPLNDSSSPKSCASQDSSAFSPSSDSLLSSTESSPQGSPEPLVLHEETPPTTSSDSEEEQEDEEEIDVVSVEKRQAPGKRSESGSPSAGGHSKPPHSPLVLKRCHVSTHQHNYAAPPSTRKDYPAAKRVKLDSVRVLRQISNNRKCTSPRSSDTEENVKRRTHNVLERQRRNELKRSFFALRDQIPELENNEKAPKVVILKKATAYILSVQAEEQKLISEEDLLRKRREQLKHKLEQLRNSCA
UniProt Q969H0: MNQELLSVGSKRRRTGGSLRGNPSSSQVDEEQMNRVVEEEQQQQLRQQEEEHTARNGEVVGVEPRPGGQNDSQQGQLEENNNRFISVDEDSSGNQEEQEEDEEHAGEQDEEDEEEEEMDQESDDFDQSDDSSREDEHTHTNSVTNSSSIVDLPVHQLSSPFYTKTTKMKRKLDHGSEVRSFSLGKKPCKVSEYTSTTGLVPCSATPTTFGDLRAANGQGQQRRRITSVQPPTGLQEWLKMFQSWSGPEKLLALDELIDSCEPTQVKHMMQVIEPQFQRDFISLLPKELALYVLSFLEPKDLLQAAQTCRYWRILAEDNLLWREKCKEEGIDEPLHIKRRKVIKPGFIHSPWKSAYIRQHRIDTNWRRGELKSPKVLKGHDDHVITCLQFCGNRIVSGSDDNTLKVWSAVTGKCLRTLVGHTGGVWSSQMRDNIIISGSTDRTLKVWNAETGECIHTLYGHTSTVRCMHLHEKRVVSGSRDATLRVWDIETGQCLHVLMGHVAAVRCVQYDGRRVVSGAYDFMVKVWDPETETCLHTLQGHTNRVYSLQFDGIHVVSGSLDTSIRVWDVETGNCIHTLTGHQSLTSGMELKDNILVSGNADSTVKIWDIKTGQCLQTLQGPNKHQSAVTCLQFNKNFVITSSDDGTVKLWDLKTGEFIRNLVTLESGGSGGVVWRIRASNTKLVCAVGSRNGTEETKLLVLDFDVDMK
UniProt P53350: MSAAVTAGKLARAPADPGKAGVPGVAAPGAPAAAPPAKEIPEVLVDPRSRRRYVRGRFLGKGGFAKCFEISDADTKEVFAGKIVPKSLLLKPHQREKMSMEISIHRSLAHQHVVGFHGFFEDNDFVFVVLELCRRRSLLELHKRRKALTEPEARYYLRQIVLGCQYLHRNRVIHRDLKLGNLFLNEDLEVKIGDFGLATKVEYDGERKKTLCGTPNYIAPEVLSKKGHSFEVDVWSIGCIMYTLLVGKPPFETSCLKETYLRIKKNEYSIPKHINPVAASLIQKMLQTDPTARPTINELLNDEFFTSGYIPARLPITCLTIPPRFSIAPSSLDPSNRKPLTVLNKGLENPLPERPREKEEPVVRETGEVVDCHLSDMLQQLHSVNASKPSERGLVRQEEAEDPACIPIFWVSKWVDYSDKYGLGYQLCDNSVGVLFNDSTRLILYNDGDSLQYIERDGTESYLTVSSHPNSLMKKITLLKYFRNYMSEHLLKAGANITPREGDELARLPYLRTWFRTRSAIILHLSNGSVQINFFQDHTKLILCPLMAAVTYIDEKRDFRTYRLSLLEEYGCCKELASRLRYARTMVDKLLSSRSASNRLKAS

No constants are given. Whether binding was seen depends on the method and setting. Binding seen in cells or lysates may run through a third protein. Some binding calls cover weakened binding; strength is not graded here.

This test addresses c-MYC (human (endogenous in D458)) (UniProt P01106). The test can be described thus: co-IP; lysates of D458 cells (RIPA buffer) immunoprecipitated with an anti-c-MYC antibody and Dynabeads; immunoblot with anti-PLK1 or anti-FBXW7 antibodies; IgG as control for specificity; endogenous proteins.

Consider FBXW7 (from UniProt Q969H0 1-707), for which the binding result is on record as “binds”. The same measure for “Polo-like kinase 1 (PLK1) (from UniProt P53350 1-603) (enzyme)”: “binds”.
